Laboratory results taken from patent US20140107021A1 (priority 2010, published 2014).

Experiment: Fmoc solid-phase peptide synthesis; Rink MBHA amide resin; DEPBT or HBTU (Boc); DIC/HOBT (Fmoc)
Details: whole synthesis, scale 0.1 mmol, side-chain lactam ring, sequence written open

With “HO-PLA-Thr-Ser-Asp-Tyr-Ser-Lys-Tyr-Leu-Asp-Glu-Arg-Arg-Ala-Lys-Asp-Phe-Val-Gln-Trp-Leu-Met-Asp-Thr-NH2” the “final HPLC purity” value (analytical HPLC, 220 nm) was 95% purity, the isolated yield (overall) was 10˜15% yield totally and the crude mass was 150˜250 mg. For the same substance, the isolated mass was 20˜30 mg.
